# PubChem BioAssay AID686938 – Drosophila RNAi Screening Center, 2013
# Aim: 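Knock-downs reducing store-operated calcium influx in Drosophila cells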 (primary screen)
# Cells: Drosophila S2R+ cells
# Reagents: long dsRNA against Drosophila genes, about 0.25 µg dsRNA per well, roughly 10,000 cells
# Time to read-out: 5 days of knock-down before the calcium assay
# Conditions: thapsigargin (SERCA pump blocker) to empty calcium stores; entry signal taken 4 min after adding it
# Measurement: 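Per-well fluo-4 fluorescence in two replicates, unnormalised, measured in resting cells and 4 min after store depletion by the SERCA blocker thapsigargin; ratio of the two present in few wells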
# Scale: calcium entry signal: higher = stronger calcium signal after store depletion; resting calcium signal: higher = higher resting calcium signal
# Call rule: 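Called when the plate z-score of the entry-to-rest ratio, mean of duplicates, falls below −3; wells with low overall dye signal (Fmax z below −2) or more than five off-targets excluded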
# Calls: active = strongly reduced calcium entry; inactive = no strong reduction
# The deposit covers about 23,000 reagents; this is an unselected part of those with a known target gene and a result. Over the whole deposit, 75 (0.33%) are marked active. 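Raw plate signals without normalisation; calls rest on plate z-scores that were not deposited; ratio present for only 364 wells.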 Names joined by + are all predicted targets of the reagent. No sequences are given here. The record does not give: the dose of the treatment.
Target gene,amplicon,"calcium entry signal, replicate 1 (fluorescence units)","calcium entry signal, replicate 2 (fluorescence units)","resting calcium signal, replicate 1 (fluorescence units)","resting calcium signal, replicate 2 (fluorescence units)",outcome
CG11034,DRSC02121,2.65e7,2.78e7,1.33e7,1.32e7,inactive
CG11034,DRSC02122,2.79e7,2.41e7,1.39e7,1.32e7,inactive
CG6310,DRSC10619,2.79e7,3.94e7,1.51e7,1.75e7,inactive
Alp7,DRSC04355,4.18e7,5.63e7,2.18e7,2.29e7,inactive
CG13738,DRSC10065,2.77e7,3.50e7,1.61e7,1.77e7,inactive
Mocs1,DRSC11225,3.31e7,3.86e7,1.60e7,1.68e7,inactive
Ir94c,DRSC13539,3.57e7,2.92e7,1.67e7,1.43e7,inactive
CG42807,DRSC06966,3.55e7,4.91e7,1.82e7,2.28e7,inactive
mRpL22,DRSC19915,3.97e7,3.43e7,1.72e7,1.44e7,inactive
Pus1,DRSC15548,4.23e7,3.76e7,6.00e7,1.77e7,inactive
CG30375,DRSC06834,4.83e7,3.91e7,2.09e7,1.69e7,inactive
Tsp42Ej,DRSC06113,3.77e7,,1.97e7,,inactive
HP4,DRSC10958,4.60e7,3.55e7,3.16e7,1.47e7,inactive
p24-1,DRSC19827,2.29e7,3.19e7,1.32e7,1.79e7,inactive
Mtap,DRSC06890,2.74e7,2.73e7,1.26e7,1.29e7,inactive
Pdzd8,DRSC19355,3.40e7,5.08e7,1.56e7,2.33e7,inactive
MstProx + Mst84Da,DRSC12597,2.83e7,2.20e7,1.37e7,1.11e7,inactive
CG32647,DRSC19690,3.23e7,4.07e7,1.58e7,1.92e7,inactive
CG32647,DRSC19878,1.64e7,2.28e7,9.77e6,1.25e7,inactive
CR30409,DRSC22058,3.10e7,4.42e7,1.54e7,2.45e7,inactive
Pitslre,DRSC11874,2.83e7,2.84e7,2.34e7,1.52e7,inactive
Pitslre,DRSC23346,2.76e7,2.63e7,1.65e7,1.52e7,inactive
Eaf,DRSC05050,2.55e7,3.38e7,1.23e7,1.55e7,inactive
Eaf,DRSC06052,4.35e7,,2.08e7,,inactive
Eaf,DRSC22028,2.62e7,4.10e7,1.30e7,2.15e7,inactive
CG2812,DRSC04319,3.91e7,4.15e7,2.00e7,2.11e7,inactive
COX6AL2,DRSC10082,1.96e7,3.17e7,9.51e6,1.50e7,inactive
scyl,DRSC11392,2.67e7,4.45e7,1.51e7,2.01e7,inactive
CG31740,DRSC01619,3.53e7,3.05e7,1.86e7,1.62e7,inactive
Atg10,DRSC06172,2.35e7,2.68e7,1.09e7,1.19e7,inactive
CG32444,DRSC11677,3.38e7,3.79e7,1.62e7,2.58e7,inactive
CG2162,DRSC08557,3.59e7,2.15e7,2.52e7,9.68e6,inactive
Prx6a,DRSC00565,3.90e7,,2.17e7,,inactive
Naa40,DRSC16265,4.01e7,4.83e7,1.97e7,2.18e7,inactive
CG15923,DRSC15129,4.76e7,4.06e7,2.33e7,1.82e7,inactive
Nct,DRSC16172,3.82e7,3.76e7,1.74e7,1.45e7,inactive
ACXA,DRSC00844,4.97e7,3.17e7,2.18e7,1.44e7,inactive
mthl5,DRSC16155,3.23e7,3.47e7,1.67e7,1.82e7,inactive
Pkn + Tsen15,DRSC21969,3.53e7,3.34e7,2.02e7,1.43e7,inactive
CG10514,DRSC14249,3.53e7,5.24e7,1.95e7,2.14e7,inactive
CG15332,DRSC18015,2.86e7,4.57e7,1.51e7,2.09e7,inactive
Pvf1,DRSC20024,3.92e7,4.15e7,1.81e7,1.80e7,inactive
Gr22a,DRSC22283,3.26e7,5.88e7,1.65e7,2.95e7,inactive
CG5151,DRSC10487,3.81e7,4.85e7,2.06e7,2.17e7,inactive
CG5151,DRSC23220,5.03e7,3.32e7,2.43e7,1.46e7,inactive
Swim,DRSC04334,3.45e7,,1.75e7,,inactive
CG17650,DRSC00510,3.49e7,3.87e7,1.74e7,1.61e7,inactive
ifc,DRSC03549,4.26e7,,2.39e7,,inactive

Just “calcium entry signal, replicate 1 (fluorescence units)”, for 13 of the entries above:
Pitslre [DRSC23346]	2.76e7
Eaf [DRSC05050]	2.55e7
Eaf [DRSC06052]	4.35e7
Eaf [DRSC22028]	2.62e7
CG2812 [DRSC04319]	3.91e7
COX6AL2 [DRSC10082]	1.96e7
scyl [DRSC11392]	2.67e7
CG31740 [DRSC01619]	3.53e7
Atg10 [DRSC06172]	2.35e7
CG32444 [DRSC11677]	3.38e7
CG2162 [DRSC08557]	3.59e7
Prx6a [DRSC00565]	3.90e7
Naa40 [DRSC16265]	4.01e7

Additional results follow.
Target gene,amplicon,"calcium entry signal, replicate 1 (fluorescence units)","calcium entry signal, replicate 2 (fluorescence units)","resting calcium signal, replicate 1 (fluorescence units)","resting calcium signal, replicate 2 (fluorescence units)",outcome
SpdS,DRSC16408,3.70e7,3.65e7,1.90e7,1.89e7,inactive
CG2993,DRSC14284,4.50e7,2.84e7,2.15e7,1.38e7,inactive
CG2993,DRSC15457,2.63e7,2.65e7,1.06e7,1.30e7,inactive
CG8117,DRSC20082,3.58e7,3.40e7,1.79e7,1.45e7,inactive
CG13676,DRSC10035,2.95e7,3.57e7,1.72e7,1.74e7,inactive
CG16904,DRSC15161,3.00e7,4.33e7,1.37e7,1.85e7,inactive
CG42326,DRSC06483,3.85e7,4.28e7,1.85e7,1.85e7,inactive
CG42326,DRSC06484,4.11e7,3.77e7,1.86e7,1.67e7,inactive
CG33303,DRSC02848,3.04e7,4.98e7,1.68e7,2.19e7,inactive
CG13068,DRSC09951,4.70e7,6.02e7,2.25e7,2.32e7,inactive
santa-maria,DRSC00994,3.69e7,4.51e7,1.86e7,1.91e7,inactive
santa-maria,DRSC02180,3.75e7,,2.33e7,,inactive
RpL29,DRSC04650,2.91e7,4.49e7,1.51e7,1.92e7,inactive
danr,DRSC14651,4.58e7,4.27e7,2.29e7,1.75e7,inactive
CG12056,DRSC17796,3.47e7,3.74e7,1.70e7,1.82e7,inactive
CG3987,DRSC15531,3.42e7,4.90e7,1.49e7,2.00e7,inactive
CG5608,DRSC15841,4.35e7,5.36e7,1.91e7,2.39e7,inactive
CG31832,DRSC22067,3.42e7,4.16e7,1.65e7,2.24e7,inactive
mh,DRSC20168,3.02e7,2.74e7,1.70e7,1.38e7,inactive
eEF2,DRSC03737,1.03e7,1.37e7,8.12e6,9.35e6,inactive
Ttc19,DRSC02474,4.45e7,4.84e7,2.16e7,2.15e7,inactive
CG17191,DRSC15185,3.22e7,5.60e7,1.65e7,2.36e7,inactive
Nnf1a,DRSC06394,1.95e7,3.21e7,1.01e7,1.42e7,inactive
cv-2,DRSC03861,3.08e7,5.47e7,1.53e7,2.14e7,inactive
cv-2,DRSC04261,4.66e7,5.20e7,2.25e7,2.20e7,inactive
nompA,DRSC06329,2.84e7,3.63e7,1.55e7,1.57e7,inactive
glob2,DRSC12560,4.02e7,3.08e7,1.56e7,1.31e7,inactive
